## Percent effect of library compounds

The filed quantity is “Percent Effect” (%).
The controls that fix the scale are not given in the record; negative values are as filed.
This is an unselected part of the compounds tested.

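Growth of Mycobacterium tuberculosis over 3 days (7H9 medium with glucose and tyloxapol); the read-out is not stated. Concentration: 500 µM. Higher reads as more growth inhibition (inferred: compounds with an IC50 in retests scored well above the rest). Size under these conditions: about 18,000 compounds, about 1,400 of them at 50% or above in at least one test.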

compound,percent effect
COC(=O)c1cc(C2CC2)n2nccc2n1,1.22
CCCNC(=O)C1CCCNC1 (configuration not stated),1.451
COc1ccc(F)c(F)c1CN1CCCC(O)(CO)C1 (configuration not stated),25.15
OCCNCc1ccc(F)cc1C(F)(F)F,2.293
OCCNCCNCc1ccc(-c2ccccc2)o1,56.39
Cc1cc(C2CCCN2)on1 (configuration not stated),-4.631
COc1cc(OC)cc(C2(F)CCNCC2)c1,54.53
NC1CCN(S(=O)(=O)C2CC2)CC1,6.446
O=C(NCC(F)(F)F)c1ccc(Cn2cccn2)cc1,30.02
COc1ccnc(N)c1,-10.22
CC(=O)c1ccc(S(=O)(=O)NCC(C)(C)N)cc1,-0.5297
NCC1CCN(C2CCCCC2)C1 (configuration not stated),-2.531
O=C(c1cc(O)cc(O)c1)N1CCc2cnccc21,39.37
CCN(CC)C(=O)[C@@H]1C[C@@H](N)CN1C(=O)COC,-1.392
CCN(Cc1c(C)nn(CC)c1C)CC(O)CO (configuration not stated),7.426
O=C(NCc1ccc2c(c1)OCO2)Nc1nccs1,60.03
Cc1ccc(C(=O)NC(C)Cn2cncn2)c(=O)[nH]1 (configuration not stated),-1.14
c1ccc(-n2nnnc2CN2CCNCC2)cc1,4.688
CCc1n[nH]c(SCC(=O)NCCSc2cnn[nH]2)n1,21.19
CCc1nsc(N2CCN(CC(O)COC)CC2)n1 (configuration not stated),12.69
CN(C)S(=O)(=O)NCc1ccccc1CO,18.03
Cc1nc(CO)c2ccccn12,4.578
CCCN1CCN(C(=O)CN(C)C)CC1,-13.5
CNC(=O)NC(=O)CNc1cccc(Cl)c1C,20.49
NCCNC(=O)c1ccccc1C(F)(F)F,0.2633
CC(C)(CC(N)=O)NC(=O)CC1CCC1,0.973
CCOc1cccc(C(C)NC(=O)CNC(C)=O)c1 (configuration not stated),26.32
CC(C)n1cncc1CN(C)CCN1CCOCC1,11.78
CCCN1CC(C(=O)NC2CCCCC2)CC1=O (configuration not stated),40.08
COc1ccccc1CC(=O)Nc1ccon1,23.74
COCCN1CCN(CCc2ccncc2)CC1,-12.43
Cc1cc(NC(=O)NC2CCOC2)n(C(C)C)n1 (configuration not stated),2.701
CC(C)CC(CN)NS(=O)(=O)c1c(F)cccc1F (configuration not stated),24.69
CCCNC(=O)C(C)NC(=O)NCCc1cccs1 (configuration not stated),-3.575
CCN(CCc1ccccc1)C(=O)CN1CSCC1=O,31.29
CN(C)CCNC(=O)Cn1ccc(N)n1,-4.085
Cc1cc(CNC(C)Cn2cccn2)on1 (configuration not stated),14.61
O=C(Nc1ccccn1)NC1CCCCC12OCCO2 (configuration not stated),28.82
CNC(=O)NCc1cccnc1OC1CCCC1,-12.14
CCN(CC)C(=O)CN1CCCC(c2nccn2C)C1 (configuration not stated),7.601
CCNc1ccc(N2CCOCC2)cc1,30.98
O=C(NCCO)NC1CCS(=O)(=O)C1 (configuration not stated),0.893
NCc1cccc(C(F)(F)F)n1,-5.805
COCC(=O)N1CCC(c2nc(CSC)no2)CC1,4.78
Cn1nccc1CCNc1ccc(F)cn1,21.84
CNC(=O)CCN(C)C(=O)C(C)Oc1ccccc1Br (configuration not stated),1.202
CN(CC(N)=O)CC(=O)N(C)Cc1cc(Br)cs1,17.49
CN1CCC(CNC(=O)c2ccccc2F)CC1,4.488
CCN1CCN(S(=O)(=O)c2c(F)cccc2F)CC1,7.53
Cc1ccc(C)c(NC(=O)N[C@@H]2CNCC[C@H]2O)c1,17.57
NCC1(O)CCN(Cc2ccccc2)CC1,-10.73
C=C(C)CN1CCN(C(=O)N(C)C)CC1,-3.745
Cc1cc(NC(=O)NCC2CSCCS2)on1 (configuration not stated),-1.735
N#Cc1ccc2nc[nH]c2c1,-4.812
CN1CCC(NC(=O)c2ccc(Br)o2)CC1,11.92
Cc1cn(-c2ccc(C#N)cc2)nc1N,-5.473
CN(C)C(=O)CCCn1nnc(-c2ccsc2)n1,70.05
COC(=O)c1ccc2cnn(C)c2c1,-3.119
CCOc1ccc(C(=O)NC2CCN(C)CC2)cc1,2.94
CCOc1cc(C(=O)OCCCn2cccn2)ccn1,4.539
CN(CC(=O)N(C)C)Cc1ccc(F)c2cccnc12,25.78
O=C(N[C@@H]1CCCNC1)c1nc2ccccn2c1F,8.732
c1cc(-c2nnc(CC3CCNC3)[nH]2)ccn1 (configuration not stated),-7.08
CNCCC(=O)NC1CC1,3.12
C=Cc1ccc(CCN)cc1,47.23
CC1CN(CC(C)(C)O)CCN1 (configuration not stated),12.64
Cc1cc(O)ccc1C(=O)NCC1(O)CCNC1 (configuration not stated),-10.13
Cc1c(C(=O)NC2=NCCS2)oc2ccccc12,86.52
Cc1cccc(OCC(O)CNC(C)C)c1 (configuration not stated),10.64
CSc1ccc(NC(=O)NCC2(O)CCNC2)cc1 (configuration not stated),41.72
Cn1cc(C(=O)NCCc2nnc3ccccn23)cn1,4.413
O=C(NCC1CC1)c1noc(-c2ccccc2F)n1,72.01
CC1CCCN(CCCNC(=O)c2ccncc2)C1 (configuration not stated),6.103
COc1cc(C)c(CNC2CC(=O)N(C)C2)cc1OC (configuration not stated),0.2777
CC(C)(C)c1n[nH]cc1CNCCCNS(C)(=O)=O,36.66
Cn1cnnc1CN1CCC(C2CCOCC2)CC1,0.92
CN(C)S(=O)(=O)Nc1cccc(C2SCCS2)c1,12.25
NCCN1CCNC(=O)C1,-5.953

The values are deposited in ChEMBL (CHEMBL3988442, “University of Dundee, Small-Polar-MMV Screening Library” (2021)).